In all, about 33,000 sequences were measured (“E-score (-0.5 to 0.5)”: median about -0.0014, highest 2% from about 0.25 on). The list shows a part of the results.
The sequences below were run against T1, Cad1 (UniProt P24813) (assay: PBM E-score (8-mer binding enrichment) (E-score (-0.5 to 0.5)); higher = stronger / more preferred TF binding). Settings: protein concentration: 100 nM; construct: GST-full length.
T1 sequence: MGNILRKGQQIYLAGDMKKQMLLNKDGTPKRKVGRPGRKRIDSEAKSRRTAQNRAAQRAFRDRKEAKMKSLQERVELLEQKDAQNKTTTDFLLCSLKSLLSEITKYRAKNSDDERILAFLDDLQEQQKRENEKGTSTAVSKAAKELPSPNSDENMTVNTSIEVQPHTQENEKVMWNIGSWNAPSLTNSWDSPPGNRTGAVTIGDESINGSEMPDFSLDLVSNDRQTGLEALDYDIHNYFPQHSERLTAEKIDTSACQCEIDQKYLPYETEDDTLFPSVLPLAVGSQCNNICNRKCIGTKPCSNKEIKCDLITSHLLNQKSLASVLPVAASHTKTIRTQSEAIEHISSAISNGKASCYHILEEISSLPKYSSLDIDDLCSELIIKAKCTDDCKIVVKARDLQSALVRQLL
Outline: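 The E-score, a modified Wilcoxon-Mann-Whitney statistic, was computed by the Universal PBM Analysis Suite for every ungapped eight-base word pooled with its reverse complement. Scans behind it were normalised with masliner after bound GST-tagged yeast transcription factors were detected with fluorescent anti-GST. The proteins, at about 100-200 nM, had been applied to universal all-10-mer Agilent arrays made double-stranded by primer extension.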

| Sequence | PBM E-score |
| --- | --- |
| TGCAGGAA | 0.0783 |
| GTAGATTA | 0.219 |
| CTAGACAC | 0.00544 |
| CGATGAAA | 0.0557 |
| AGATGCCT | -0.147 |
| CAAATCAC | 0.0907 |
| AGTAAACG | 0.0285 |
| CATATGGG | 0.137 |
| GCCGTCCC | -0.236 |
| CCGATTAA | 0.159 |
| GTCGCACA | -0.0519 |
| GCGCCAAA | 0.103 |
| CCTCGGAC | 0.0537 |
| ACTCGACG | 0.0798 |
| GCCTCCGC | -0.105 |
| ACATCGTC | 0.19 |
| CATTGTCC | 0.104 |
| AATACTTC | 0.158 |
| CGTAACCC | -0.0539 |
| AACAGGAA | -0.104 |
| CCAGTCCA | -0.251 |
| CCCAAATC | -0.139 |
| CATCTGTC | -0.134 |
| AGCTGCAG | 0.0911 |
| GTTTTAGA | 0.0184 |

| Sequence | PBM E-score |
| --- | --- |
| CCTAAAGG | -0.194 |
| CCAGGATC | 0.037 |
| ATCACTCG | 0.0231 |
| AGCAGGTC | 0.054 |
| AGACTGCA | -0.193 |
| CACTAGGA | -0.277 |
| TATTGGCA | 0.0632 |
| AAGCACTA | -0.0887 |
| TCGCCCCA | -0.156 |
| AACTACGA | 0.0336 |
| GCTCCTTA | -0.0502 |
| CCCGAGCC | -0.22 |
| CTAACACA | 0.249 |
| CCACTACC | -0.0942 |
| CCTCCGAC | -0.155 |
| GGAGCGCC | -0.252 |
| CTATTATA | 0.068 |
| ATGTTAGA | -0.06 |
| AAGCCAAG | -0.155 |
| CATCGATG | 0.169 |
| ATAGTACG | 0.0814 |
| ATTGGACA | 0.139 |
| CAATGATC | -0.0359 |
| CACACGGA | -0.0635 |
| GGGCTACC | -0.114 |

Reprinted at random: 3 entries already listed

| Sequence | PBM E-score |
| --- | --- |
| CACTAGGA | -0.277 |
| AGACTGCA | -0.193 |
| AGCAGGTC | 0.054 |

(next part)

| Sequence | PBM E-score |
| --- | --- |
| CTGCGACA | 0.113 |
| CCTTACCG | -0.0548 |
| ATATTGTA | 0.0624 |
| CTCAAGAG | -0.316 |
| AGCTCTAA | -0.0645 |
| AGCATGCA | 0.00687 |
| AGACACCT | -0.157 |
| CACTAATA | 0.183 |
| ATAGTTAG | 0.119 |
| GTATTGTA | 0.141 |
| TAGGATGA | 0.0206 |
| ATGTAGAC | -0.145 |
| ACCGCAGC | -0.0641 |
| ACGCAGAA | 0.122 |
| ACAATTGA | 0.222 |
| GTTTAAGA | -0.145 |
| CCCGCTCG | -0.256 |
| CTCTCAGC | -0.178 |
| AGTTTGAA | 0.073 |
| ATACCAGG | 0.056 |
| AGATTAAC | -0.0123 |
| CCACGGGC | -0.107 |
| CGTATGAC | 0.00313 |
| ATAATCAG | 0.225 |
| CATGGGTA | -0.202 |

Nothing new here: entries from further up.

| Sequence | PBM E-score |
| --- | --- |
| AGCTCTAA | -0.0645 |
| AGCATGCA | 0.00687 |
| AGACACCT | -0.157 |
| CACTAATA | 0.183 |
| ATAGTTAG | 0.119 |

Additional entries.

| Sequence | PBM E-score |
| --- | --- |
| GATGAAGC | -0.0387 |
| GGCTCGAA | 0.0808 |
| TCTACCCA | 0.0629 |
| GAGGACCC | -0.144 |
| GTCTGGTA | 0.104 |
| ATTGACAA | 0.0764 |
| TATACCGA | 0.114 |
| CCAGCAAA | 0.108 |
| AAATTTGC | 0.182 |
| AAATACTA | 0.0416 |
| CACGTAAG | -0.0423 |
| CCGCTGTC | 0.00182 |
| AAGCCTGC | -0.05 |
| CGAGTCCC | -0.108 |
| ACATTGTC | 0.292 |
| AAACCCAC | 0.131 |
| ACCTAGCG | 0.04 |
| AGGGGCGG | -0.0952 |
| ATAGCTGG | -0.122 |
| CAATAGGG | -0.0436 |
| CACGTGCG | -0.12 |
| CACCTCCA | -0.00736 |
| CTTGTTGC | -0.0146 |
| ATTAGCCG | 0.0767 |
| TAACAACA | 0.161 |

| Sequence | PBM E-score |
| --- | --- |
| ACCATAGC | -0.067 |
| AAAAGCAC | 0.0589 |
| ACACGTTA | 0.017 |
| AAAAATTC | 0.131 |
| ACGTATAT | 0.0978 |
| CCCGAAAC | -0.0765 |
| TGCCGACA | 0.107 |
| TACAAGCA | 0.0886 |
| CCATTGTA | 0.0618 |
| AATGCACT | 0.0352 |
| TGATGCAA | 0.0945 |
| GACAAACA | 0.176 |
| ATCTGGTC | 0.0734 |
| CATCCCCG | -0.0741 |
| CTGAAGGC | -0.237 |
| TATTTAGA | 0.119 |
| GTCTAGAA | -0.0373 |
| CAAAATTC | 0.2 |
| ACCCGGAA | 0.138 |
| GAAAGTCA | 0.0255 |
| AAAGCCCA | 0.072 |
| AAGAATTA | 0.113 |
| ATGATAGC | 0.0595 |
| TCACGAGA | -0.102 |
| ACTGAAGC | 0.00638 |

| Sequence | PBM E-score |
| --- | --- |
| CACTCCTG | -0.123 |
| ACAATAAT | 0.232 |
| CGACCTCG | 0.0954 |
| AGCCGCAA | -0.175 |
| CCGCTTTC | -0.129 |
| GCACCAGA | -0.163 |
| ATAGTCAG | 0.0123 |
| CAAACGCG | 0.181 |
| GGGCTTCA | -0.138 |
| ATGCAAAG | -0.018 |
| GCGTTAGA | 0.0542 |
| AATTAACG | 0.119 |
| ATTACCTC | 0.0779 |
| AACGCGAC | 0.0146 |
| ACAGGATC | -0.24 |
| ACGTTTAG | 0.0419 |
| GCCAATTA | -0.0568 |
| CGTGTGTC | 0.0456 |
| ATGCTTCG | 0.0307 |
| CGGGACTA | -0.22 |
| GAAACGAA | 0.181 |
| AAAATATG | 0.211 |
| CTCACGTC | 0.0213 |
| CGAAGGGC | 0.0641 |
| CCCAATTA | 0.128 |

| Sequence | PBM E-score |
| --- | --- |
| CCACATGA | -0.0563 |
| GAAGTGAC | 0.0197 |
| AGGAAACT | -0.118 |
| ACCCTATA | -0.129 |
| ATTCCATC | 0.125 |
| GGATGCGA | -0.128 |
| CTTATCAC | 0.0836 |
| GGCCTTAC | -0.166 |
| CGGGCGGA | -0.0604 |
| AAAGATAA | 0.2 |
| CAGGACCG | -0.124 |
| CTACAGGA | 0.0522 |
| AAATGATC | -0.133 |
| CGGGCTCC | -0.153 |
| AGACAGCG | -0.00799 |
| GTCGGTAA | -0.116 |
| GTTGCGAA | 0.119 |
| TCGGGCAA | 0.123 |
| AGTCGGCC | -0.0163 |
| GGGTTTAA | 0.0616 |
| ATATAAAC | 0.212 |
| CGCACGGC | -0.00041 |
